Laboratory results from publication PMC5762521.
No constants are given. Whether binding was seen depends on the method and setting. Binding seen in cells or lysates may run through a third protein. Some binding calls cover weakened binding; strength is not graded here.

Chains of the proteins cited; added tags and fusions are not shown.
UniProt Q00613: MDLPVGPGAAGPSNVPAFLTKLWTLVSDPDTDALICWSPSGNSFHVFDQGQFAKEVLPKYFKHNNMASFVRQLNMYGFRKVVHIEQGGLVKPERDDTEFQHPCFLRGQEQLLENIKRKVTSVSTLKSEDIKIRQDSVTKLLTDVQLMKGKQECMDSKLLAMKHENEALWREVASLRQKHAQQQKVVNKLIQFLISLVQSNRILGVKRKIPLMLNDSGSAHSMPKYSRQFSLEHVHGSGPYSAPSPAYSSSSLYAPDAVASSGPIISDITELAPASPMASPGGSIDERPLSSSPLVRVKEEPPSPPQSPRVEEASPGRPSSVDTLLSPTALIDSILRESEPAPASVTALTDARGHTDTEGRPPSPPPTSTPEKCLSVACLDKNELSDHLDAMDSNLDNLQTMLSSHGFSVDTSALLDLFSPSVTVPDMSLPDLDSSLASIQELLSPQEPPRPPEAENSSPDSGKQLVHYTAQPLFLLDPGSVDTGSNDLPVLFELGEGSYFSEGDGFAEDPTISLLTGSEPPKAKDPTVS

Biological target: Heat shock transcription factor-1 (HSF-1) (human (endogenous in HCT-116)) (UniProt Q00613)
Assay: co-IP; Total HCT-116 cell lysates (with or without vitexin) incubated with anti-HSF-1 antibody coupled to Dynabeads M-270 Epoxy; SDS-PAGE and immunoblot of the precipitate

B1: Apolipoprotein L1 (ApoL1) (protein, UniProt O14791 28-398)
chain: EEAGARVQQNVPSGTDTGDPQSKPLGDWAAGTMDPESSIFIEDAIKYFKEKVSTQNLLLLLTDNEAWNGFVAAAELPRNEADELRKALDNLARQMIMKDKNWHDKGQQYRNWFLKEFPRLKSELEDNIRRLRALADGVQKVHKGTTIANVVSGSLSISSGILTLVGMGLAPFTEGGSLVLLEPGMELGITAALTGITSSTMDYGKKWWTQAQAHDLVIKSLDKLKEVREFLGENISNFLSLAGNTYQLTRGIGKDIRALRRARANLQSVPHASASRPRVTEPISAESGEQVERVNEPSILEMSRGVKLTDVAPVSFFLVLDVVYLVYESKHLHEGAKSETAEELKKVAQELEEKLNILNNNYKILQADQEL
  binding: binds
